One substance from publication doi:10.1101/787812 can be followed below.

By UniProt entry, the sequences of proteins in these tests, tags left out.
UniProt Q9Y3D6: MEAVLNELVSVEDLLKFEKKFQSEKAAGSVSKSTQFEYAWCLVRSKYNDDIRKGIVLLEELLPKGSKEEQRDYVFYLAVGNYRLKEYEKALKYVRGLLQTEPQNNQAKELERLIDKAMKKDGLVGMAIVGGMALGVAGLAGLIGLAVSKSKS
UniProt O00429: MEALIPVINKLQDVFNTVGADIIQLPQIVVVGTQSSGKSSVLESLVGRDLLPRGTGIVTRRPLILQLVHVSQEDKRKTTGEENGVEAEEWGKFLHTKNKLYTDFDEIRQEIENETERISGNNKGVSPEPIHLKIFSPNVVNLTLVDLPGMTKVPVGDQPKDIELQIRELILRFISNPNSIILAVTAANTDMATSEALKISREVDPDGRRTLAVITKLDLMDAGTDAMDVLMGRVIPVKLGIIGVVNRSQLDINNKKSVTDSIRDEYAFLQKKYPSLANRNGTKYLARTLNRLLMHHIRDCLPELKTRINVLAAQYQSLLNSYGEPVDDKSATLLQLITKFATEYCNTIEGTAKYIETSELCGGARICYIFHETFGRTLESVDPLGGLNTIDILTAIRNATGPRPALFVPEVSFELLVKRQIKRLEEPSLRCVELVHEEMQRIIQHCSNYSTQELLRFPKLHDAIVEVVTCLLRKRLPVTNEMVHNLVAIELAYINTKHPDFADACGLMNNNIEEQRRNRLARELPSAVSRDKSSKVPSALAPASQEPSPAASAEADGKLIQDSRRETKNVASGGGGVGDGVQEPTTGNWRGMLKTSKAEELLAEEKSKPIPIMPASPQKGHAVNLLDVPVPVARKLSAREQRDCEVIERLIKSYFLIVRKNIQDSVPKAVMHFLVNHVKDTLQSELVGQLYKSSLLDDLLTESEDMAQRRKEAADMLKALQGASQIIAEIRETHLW
UniProt P63241: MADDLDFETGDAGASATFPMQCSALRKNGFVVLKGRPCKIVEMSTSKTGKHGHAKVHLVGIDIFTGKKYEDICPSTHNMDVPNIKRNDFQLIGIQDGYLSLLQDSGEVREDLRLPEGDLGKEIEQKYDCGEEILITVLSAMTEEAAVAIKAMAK

For assay [1], the target named is Fis1 (not stated (endogenous in VSMCs; human and mouse VSMCs were cultured)) (UniProt Q9Y3D6). Nature of the assay: co-IP.
Assay [2] concerns the target T1, mitofusin 1 (not stated (endogenous in VSMCs; human and mouse VSMCs were cultured)) (UniProt Q8IWA4).
T1 sequence: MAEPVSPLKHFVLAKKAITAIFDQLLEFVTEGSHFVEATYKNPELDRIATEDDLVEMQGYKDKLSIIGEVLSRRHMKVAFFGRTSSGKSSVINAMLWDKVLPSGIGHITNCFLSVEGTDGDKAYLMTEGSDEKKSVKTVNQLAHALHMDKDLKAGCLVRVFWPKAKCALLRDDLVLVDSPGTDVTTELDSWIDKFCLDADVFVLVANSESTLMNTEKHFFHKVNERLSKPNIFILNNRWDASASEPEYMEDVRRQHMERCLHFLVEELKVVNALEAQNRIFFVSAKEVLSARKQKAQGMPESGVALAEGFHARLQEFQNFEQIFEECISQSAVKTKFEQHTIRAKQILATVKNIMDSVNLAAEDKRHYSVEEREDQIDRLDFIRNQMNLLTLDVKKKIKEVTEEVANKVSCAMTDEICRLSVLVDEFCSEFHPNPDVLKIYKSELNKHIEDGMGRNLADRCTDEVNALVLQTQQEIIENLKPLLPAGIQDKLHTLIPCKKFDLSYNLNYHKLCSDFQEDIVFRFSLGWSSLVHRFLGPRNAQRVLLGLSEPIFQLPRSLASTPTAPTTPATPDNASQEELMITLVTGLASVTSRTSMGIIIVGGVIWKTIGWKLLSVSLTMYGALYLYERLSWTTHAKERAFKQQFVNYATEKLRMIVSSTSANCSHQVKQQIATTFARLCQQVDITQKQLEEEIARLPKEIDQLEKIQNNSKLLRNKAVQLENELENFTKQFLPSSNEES
Nature of the assay: co-IP.

Assay [3] has as its target T2, Mtfr1 (not stated (endogenous in VSMCs; human and mouse VSMCs were cultured)) (UniProt Q15390).
T2 sequence: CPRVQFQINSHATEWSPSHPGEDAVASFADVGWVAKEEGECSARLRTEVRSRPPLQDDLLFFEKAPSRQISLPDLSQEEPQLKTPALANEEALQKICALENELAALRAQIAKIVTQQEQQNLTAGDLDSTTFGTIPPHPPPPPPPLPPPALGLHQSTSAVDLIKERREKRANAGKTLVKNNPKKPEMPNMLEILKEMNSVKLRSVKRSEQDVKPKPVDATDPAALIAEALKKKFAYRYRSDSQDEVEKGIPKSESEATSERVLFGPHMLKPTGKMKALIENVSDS
Kind of assay: co-IP.

The target of assay [4] is dynamin-related protein 1 (not stated (endogenous in VSMCs; human and mouse VSMCs were cultured)) (UniProt O00429). Nature of the assay: co-IP.
Assay [5] has as its target T1, mitofusin 1 (not stated (endogenous in VSMCs; human and mouse VSMCs were cultured)). Nature of the assay: proximity ligation.

No constants are given. Whether binding was seen depends on the method and setting. In cells and extracts the contact can be indirect. Some binding calls cover weakened binding; strength is not graded here. For some assays here: Sequences can lack the tags named with a protein.

For “Eukaryotic translation initiation factor 5a (from UniProt P63241 1-154)”, the binding entry in assay [1] is listed as “no binding”; in assay [2], “binds”; in assay [3], “no binding”; in assay [4], “no binding”; in assay [5], “binds”.
